Publication PMC4582193

Biological target: T1, Flag-tagged kinase-dead mutant Nek2A (Nek2A K37R) (human (cloned from HEK293T)) (UniProt P51955)
T1 sequence: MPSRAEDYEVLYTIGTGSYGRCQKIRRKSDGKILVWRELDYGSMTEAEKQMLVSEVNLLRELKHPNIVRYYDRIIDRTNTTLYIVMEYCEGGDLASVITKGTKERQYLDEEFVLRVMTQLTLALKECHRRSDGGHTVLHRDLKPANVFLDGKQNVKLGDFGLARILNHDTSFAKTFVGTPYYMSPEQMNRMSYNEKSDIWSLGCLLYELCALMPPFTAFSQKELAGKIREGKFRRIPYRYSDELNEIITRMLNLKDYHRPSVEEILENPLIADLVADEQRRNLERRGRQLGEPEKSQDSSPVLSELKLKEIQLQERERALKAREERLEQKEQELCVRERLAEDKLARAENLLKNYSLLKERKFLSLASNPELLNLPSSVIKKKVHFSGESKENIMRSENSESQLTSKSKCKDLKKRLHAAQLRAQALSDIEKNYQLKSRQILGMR
Assay: affinity purification with mass spectrometry; Flag-tagged kinase-dead Nek2A expressed in HEK293T cells, affinity purified with M2 agarose, SDS-PAGE, silver staining, bands around 85 kDa identified by mass spectrometry

B1: centrosomal protein 85 kDa (Cep85), endogenous in HEK293T (protein, UniProt Q6P2H3-1 1-762)
chain: MAMQEKYPTEGISHVTSPSSDVIQKGSSLGTEWQTPVISEPFRSRFSRCSSVADSGDTAIGTSCSDIAEDFCSSSGSPPFQPIKSHVTIPTAHVMPSTLGTSPAKPNSTPVGPSSSKLPLSGLAESVGMTRNGDLGAMKHSPGLSRDLMYFSGATGENGIEQSWFPAVGHERQEEARKFDIPSMESTLNQSAMMETLYSDPHHRVRFHNPRTSTSKELYRVLPEAKKAPGSGAVFERNGPHSNSSGVLPLGLQPAPGLSKPLPSQVWQPSPDTWHPREQSCELSTCRQQLELIRLQMEQMQLQNGAICHHPAAFGPSLPILEPAQWISILNSNEHLLKEKELLIDKQRKHISQLEQKVRESELQVHSALLGRPAPFGDVCLLRLQELQRENTFLRAQFAQKTEALSREKIDLEKKLSASEVEVQLIRESLKVALQKHSEEVKKQEERVKGRDKHINNLKKKCQKESEQNREKQQRIETLERYLADLPTLEDHQKQSQQLKDSELKSTELQEKVTELESLLEETQAICREKEIQLESLRQREAEFSSAGHSLQDKQSVEETSGEGPEVEMESWQKRYDSLQKIVEKQQQKMDQLRSQVQSLEQEVAQEEGTSQALREEAQRRDSALQQLRTAVKELSVQNQDLIEKNLTLQEHLRQAQPGSPPSPDTAQLALELHQELASCLQDLQAVCSIVTQRAQGHDPNLSLLLGIHSAQHPETQLDLQKPDVIKRKLEEVQQLRRDIEDLRTTMSDRYAQDMGENCVTQ
binding: binds

No constants are given. Whether binding was seen depends on the method and setting. Binding seen in cells or lysates may run through a third protein. These calls come from enrichment with a bait or labelling near it, and not all partners need be listed. Tags and fused reporters may be left off the sequences shown.
